# Experimental data taken from the supplement of paper PMC4683952.
# The list shows a part of the results. No stated cut-off is given here; in the data, active = 2 or more and inactive = the rest. Most values lie within the scatter of the assay; repeated measurements hardly agree.
# Tested on: Lgr5 (MarsCy1-Lgr5-EGFP, U2OS)
# Test: cell-surface Lgr5 expression (SCi1 fluorescence, background-subtracted) relative to WT DMSO (fold of DMSO control); higher = more Lgr5 at the plasma membrane
# Conditions: U2OS MarsCy1-Lgr5-EGFP stable; treatment time: overnight; library: ActiProbe-5K (TimTec); 25 µM
row,SMILES,cell-surface Lgr5 expression
1,CCCCC(CC)C(=O)Nc1nnc(CC(C)C)s1 (configuration not stated),inactive: 1.41
2,Nc1ccc2cc(Br)c3ccccc3c2c1,inactive: 0.76
3,C(C1C(C(OC\C(=C(/Cl)Cl)Cl)=O)CC=CC1)(NC1CCCCC1)=O (configuration not stated),inactive: 1.28
4,Brc1ccc2c(c1)C(c1ccccc1)=NNC(c1ccccc1)=N2,inactive: 0.713
5,Cn1c(=O)c2c(ncn2CC#N)n(C)c1=O,inactive: 1.13
6,c1ccc2c(c1)Nc1ccccc1O2,inactive: 0.993
7,CCOC(=O)c1c(NC(=O)CSc2nnc(C)s2)sc2c1CCC2,inactive: 1.28
8,CN(C)CCCNc1ccc([N+](=O)[O-])cc1[N+](=O)[O-].Cl,inactive: 1.28
9,O=C(O)Cn1cc(Cl)c([N+](=O)[O-])n1,inactive: 1.21
10,CCOC(=O)c1sc(NC(=O)C(C)(C)C)c(C(=O)OCC)c1C,inactive: 1.16
11,O=C1c2ccccc2-c2c(-c3ccccc3)sc(=O)n21,inactive: 1.54
12,CC1(C)CC2(CC(C)(C)N1)OC(=O)N(CCOC13CC4CC(CC(C4)C1)C3)C2(C)O (configuration not stated),inactive: 1.51
13,CCN1C(=O)/C(=C\c2c(N3CCCC3)nc3c(C)cccn3c2=O)SC1=S,inactive: 0.914
14,S=c1oc(-c2ccco2)nn1CN1CCCCC1,inactive: 1.13
15,Clc1ccc(/N=C\c2cc3ccccc3nc2Cl)cc1Cl,inactive: 1.43
16,C1CN(Cc2nnn[nH]2)CCO1,inactive: 0.975
17,O=C(Cc1cccs1)Nc1nccs1,inactive: 0.939
18,COc1c(Cl)cc(Cl)cc1Br,inactive: 1.05
19,COc1cc2c(cc1OC)C(=O)OC2,inactive: 1.48
20,Nc1c([N+](=O)[O-])ncn1CCO,inactive: 1.13
21,c1ccc(-c2ccc(CSc3nc4ccccc4o3)cc2)cc1,inactive: 1.01
22,CNC(=S)N1CCCC2=C[C@@H]3C[C@@H](CN4CCCC[C@H]34)[C@@H]21,inactive: 1.29
23,CS(=O)(=O)c1nnnn1-c1ccccc1Cl,inactive: 0.97

row,SMILES,cell-surface Lgr5 expression
1,O=S(=O)(Nc1ccc2ncccc2c1)c1ccc2oc3ccccc3c2c1,inactive: 0.979
2,Clc1cccc(C2Oc3ccccc3C3CC(c4ccccc4)=NN32)c1 (configuration not stated),inactive: 0.995
3,COc1c(Br)cc(Br)cc1/C=N/Nc1nncn1N,inactive: 1.33
4,Nc1nonc1/C(=N\O)N1CCN(CCO)CC1,inactive: 1.08
5,Nn1c(S)nnc1-c1cccs1,inactive: 1.17
6,C1=CC2CC1CC2CN1CCN(C2CC3CCC2C3)CC1 (configuration not stated),inactive: 1.41
7,COc1ccc(NC(=S)SC)cc1OC,inactive: 1.43
8,CC(C)OC(=O)C(C)Nc1n[nH]c(=O)[nH]c1=O (configuration not stated),inactive: 0.958
9,Cn1cccc1/C=N\NC(=O)CCCCCCC(=O)N/N=C/c1cccn1C,inactive: 1.26
10,N#Cc1c(SCC(=O)Nc2nncs2)sc2c(O)cc(=O)[nH]c12,inactive: 1.17
11,S=c1oc(-c2cccs2)nn1CN1CCOCC1,inactive: 1.11
12,CCn1cc(/C=C\C(=O)NC(=S)Nc2cnn(C)c2C)cn1,active: 2.06
13,CN(C)S(=O)(=O)Nc1ccc(Cl)c(Cl)c1,inactive: 0.984
14,CCCCCCCCN1C(=O)CCC1=O,inactive: 1.2
15,C#CC[N+](C)(C)Cc1c(C)ccc2ccccc12.[Br-],inactive: 1.15
16,Cc1nn(C)cc1Nc1nnc(-c2cc(C(F)(F)F)nn2C)s1,inactive: 0.87
17,O=C1CC(N2CCc3ccccc32)C(=O)N1c1cc(Cl)cc(Cl)c1 (configuration not stated),inactive: 1.1
18,Cc1c(-n2nnc3cnn(C)c3c2=O)cnn1C,inactive: 1.13
19,OCn1nc(-c2ccc(Cl)cc2)n(Cc2ccccc2)c1=S,inactive: 1.2
20,CC(C)CC1NC(=S)N(C)C1=O (configuration not stated),inactive: 1.1
21,CS(=O)(=O)Nc1ccc(S(=O)(=O)Nc2ncccn2)cc1,inactive: 0.964
22,CC(C)N1C(=O)C(C#N)C2(CCNCC2)C(C#N)=C1S (configuration not stated),inactive: 1.1
23,O=C(O)/C=C\C(=O)N1CCN(C(=O)/C=C\C(=O)O)CC1,inactive: 1.12

# Quoted at random: two compounds from above.
row,SMILES,cell-surface Lgr5 expression
8,CC(C)OC(=O)C(C)Nc1n[nH]c(=O)[nH]c1=O (configuration not stated),inactive: 0.958
17,O=C1CC(N2CCc3ccccc32)C(=O)N1c1cc(Cl)cc(Cl)c1 (configuration not stated),inactive: 1.1

# Additional results follow.

row,SMILES,cell-surface Lgr5 expression
1,C1CN(CCN2CCOCC2)CCO1,inactive: 1.17
2,N/C(=N/OCc1ccc(Cl)cc1Cl)c1nonc1N,inactive: 0.975
3,NNC(=O)c1nnn(-c2nonc2N)c1CN1CCOCC1,inactive: 1.05
4,O=C1NC(c2cccs2)C(C(=O)c2cccs2)=C1O (configuration not stated),inactive: 1.32
5,Cc1nn(C)cc1Br,inactive: 1.07
6,CC(C)(C)c1c(C(=O)NN)nnn1-c1nonc1N,inactive: 1.22
7,CS(=O)(=O)N1CCc2cc(Br)ccc21,inactive: 1.37
8,CCOC(=O)C1CCN(S(=O)(=O)N(C)C)CC1,inactive: 1.07
9,O=C(O)CCCNS(=O)(=O)c1ccc(Br)s1,inactive: 1.1
10,CC(C)CCC[C@@H](C)[C@H]1CC[C@H]2[C@@H]3CCC4CC(O)CCC4(C)[C@@H]3CCC12C (some centres not stated),inactive: 1.01
11,CCOC(=O)Cc1csc(NS(=O)(=O)CC23CCC(CC2=O)C3(C)C)n1 (configuration not stated),inactive: 1.01
12,Clc1ccc(OCc2nnc3n2N=C(c2ccc4c(c2)OCCO4)CS3)c(Cl)c1,inactive: 1.03
13,O=C1c2nn[nH]c2C(=O)c2nn[nH]c21,inactive: 1.34
14,O=C1C[C@@H]2[C@@H](CO)[C@H](O)C[C@@H]2O1,inactive: 1.11
15,O=[N+]([O-])c1cc(C(F)(F)F)cc([N+](=O)[O-])c1-n1ccnc1,inactive: 1.78
16,O=C1/C(=N\c2ccc3ccccc3c2)c2ccccc2N1CN1CCN(c2ccccc2)CC1,inactive: 1.1
17,CCC(C1=C(O)CC(C)(C)CC1=O)C1C(=O)CC(C)(C)CC1=O (configuration not stated),inactive: 1.06
18,Fc1ccccc1Nc1nc2nonc2nc1Nc1ccccc1F,inactive: 0.958
19,COc1c2ccoc2nc2c(OC)cccc12,inactive: 1.11
20,Cc1[nH]c(C#N)c(C)c1C=O,inactive: 0.946
21,Cc1cc(C(C)(C)C)c(O)c(C(C)(C)c2cc(C)cc(C(C)(C)C)c2O)c1,inactive: 1.37
